The results in this text go back to patent publication US20230090311A1 (THE UNIVERSITY OF QUEENSLAND, priority 2020, published 2023).

Data set [1] is described as follows: solid-phase peptide synthesis. As to conditions: whole synthesis, scale of the general procedure 0.1 mmol, 0.2 mmol; for final HPLC purity: analytical RP-HPLC, detection at 214 nm.
Data set [2] can be described thus: Fmoc solid-phase peptide synthesis; rink amide MBHA; HATU/DIPEA. As to conditions: whole synthesis, scale 0.1 mmol.

Plain letter strings leave the end groups untold.

Turning to 559FLPFQQFGRDIADT572, the “final HPLC purity” value in data set [1] is no less than 99%. For the same substance, the isolated yield in data set [2] turned out to be 80%.

Consider 623AIHADQLTPTWRVYSTG639, for which the “final HPLC purity” value in data set [1] is no less than 99%. Moreover, the isolated yield in data set [2] was found to be 75%.

Consider AKFVAAWTLKAAAEVLTRRQSQDPKYVTQRIS, for which, in data set [1], the “final HPLC purity” value is on record as 99% and the isolated yield turned out to be 16%.

For “AKFVAAWTLKAAAQAEDKVKQSREAKKQVEKALKQLEDKVQ”, in data set [1], the “final HPLC purity” value is recorded as 99% and the isolated yield is reported as 18%.

Turning to “Ac-(Phe-Leu-Ala)5-PADRE-J8 (FLAFLAFLAFLAFLAAKFVAAWTLKAAAQAEDKVKQSREAKKQVEKALKQLEDKVQ; N-terminal acetyl; Immunogenic agent incorporating phenylalanine- leucine-alanine repeat hydrophobic peptide, PADRE and J8.)”, the “final HPLC purity” value in data set [1] (run 1) is 97%; in data set [1] (run 2), 98%; in data set [1] (run 3), no less than 99%. Besides, the isolated yield in data set [1] (run 1) turned out to be 19%; in data set [1] (run 2) it was 15%; in data set [1] (run 3), 34%.

For the substance “Ac-(Ser)15-PADRE-J8 (SSSSSSSSSSSSSSSAKFVAAWTLKAAAQAEDKVKQSREAKKQVEKALKQLEDKVQ; N-terminal acetyl; Immunogenic agent incorporating polyserine hydrophobic peptide, PADRE and J8.)”, the “final HPLC purity” value in data set [1] stood at 96%. The isolated yield is on record as 16% in data set [1] (run 1) and 15% in data set [1] (run 2).

For DNGKAIYERARERALQELGP, in data set [1], the “final HPLC purity” value was 99% and the isolated yield came to 16%.

For the substance EVLTRRQSQDPKYVTQRIS, in data set [1], the “final HPLC purity” value was 99% and the isolated yield turned out to be 16%.

LLLLLLLLLLAKFVAAWTLKAAA: in data set [1], the “final HPLC purity” value was no less than 99% and the isolated yield is 45%.

In the case of “LLLLLLLLLLAKFVAAWTLKAAAEVLTRRQSQDPKYVTQRIS”, the “final HPLC purity” value in data set [1] amounted to 99%.

Regarding LLLLLLLLLLQAEPDRAHYNIVTF, the “final HPLC purity” value in data set [2] (analytical RP-HPLC, detection at 214 nm) is given as greater than 95%. The isolated yield in data set [2] came to 32%.

Regarding QAEDKVKQSREAKKQVEKALKQLEDKVQ, the isolated yield in data set [1] is 20%.
